# In article doi:10.1101/2021.10.26.465890:
# By UniProt entry, the sequences of proteins in these tests, tags left out. Where a name states a change or a piece, a line headed by the entry shows the natural chain unless it says otherwise. Chains listed by the source or under a name are the forms on record and can include a tag or linker.
# BioID2-DNAJB6b (O75190, form named): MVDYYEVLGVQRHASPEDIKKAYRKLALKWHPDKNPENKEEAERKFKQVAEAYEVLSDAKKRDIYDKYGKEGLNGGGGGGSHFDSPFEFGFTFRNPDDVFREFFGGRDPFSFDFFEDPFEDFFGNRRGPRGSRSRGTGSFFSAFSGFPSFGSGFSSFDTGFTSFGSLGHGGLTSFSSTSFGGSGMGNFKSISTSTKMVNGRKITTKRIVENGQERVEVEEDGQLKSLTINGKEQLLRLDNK
# UniProt P49790: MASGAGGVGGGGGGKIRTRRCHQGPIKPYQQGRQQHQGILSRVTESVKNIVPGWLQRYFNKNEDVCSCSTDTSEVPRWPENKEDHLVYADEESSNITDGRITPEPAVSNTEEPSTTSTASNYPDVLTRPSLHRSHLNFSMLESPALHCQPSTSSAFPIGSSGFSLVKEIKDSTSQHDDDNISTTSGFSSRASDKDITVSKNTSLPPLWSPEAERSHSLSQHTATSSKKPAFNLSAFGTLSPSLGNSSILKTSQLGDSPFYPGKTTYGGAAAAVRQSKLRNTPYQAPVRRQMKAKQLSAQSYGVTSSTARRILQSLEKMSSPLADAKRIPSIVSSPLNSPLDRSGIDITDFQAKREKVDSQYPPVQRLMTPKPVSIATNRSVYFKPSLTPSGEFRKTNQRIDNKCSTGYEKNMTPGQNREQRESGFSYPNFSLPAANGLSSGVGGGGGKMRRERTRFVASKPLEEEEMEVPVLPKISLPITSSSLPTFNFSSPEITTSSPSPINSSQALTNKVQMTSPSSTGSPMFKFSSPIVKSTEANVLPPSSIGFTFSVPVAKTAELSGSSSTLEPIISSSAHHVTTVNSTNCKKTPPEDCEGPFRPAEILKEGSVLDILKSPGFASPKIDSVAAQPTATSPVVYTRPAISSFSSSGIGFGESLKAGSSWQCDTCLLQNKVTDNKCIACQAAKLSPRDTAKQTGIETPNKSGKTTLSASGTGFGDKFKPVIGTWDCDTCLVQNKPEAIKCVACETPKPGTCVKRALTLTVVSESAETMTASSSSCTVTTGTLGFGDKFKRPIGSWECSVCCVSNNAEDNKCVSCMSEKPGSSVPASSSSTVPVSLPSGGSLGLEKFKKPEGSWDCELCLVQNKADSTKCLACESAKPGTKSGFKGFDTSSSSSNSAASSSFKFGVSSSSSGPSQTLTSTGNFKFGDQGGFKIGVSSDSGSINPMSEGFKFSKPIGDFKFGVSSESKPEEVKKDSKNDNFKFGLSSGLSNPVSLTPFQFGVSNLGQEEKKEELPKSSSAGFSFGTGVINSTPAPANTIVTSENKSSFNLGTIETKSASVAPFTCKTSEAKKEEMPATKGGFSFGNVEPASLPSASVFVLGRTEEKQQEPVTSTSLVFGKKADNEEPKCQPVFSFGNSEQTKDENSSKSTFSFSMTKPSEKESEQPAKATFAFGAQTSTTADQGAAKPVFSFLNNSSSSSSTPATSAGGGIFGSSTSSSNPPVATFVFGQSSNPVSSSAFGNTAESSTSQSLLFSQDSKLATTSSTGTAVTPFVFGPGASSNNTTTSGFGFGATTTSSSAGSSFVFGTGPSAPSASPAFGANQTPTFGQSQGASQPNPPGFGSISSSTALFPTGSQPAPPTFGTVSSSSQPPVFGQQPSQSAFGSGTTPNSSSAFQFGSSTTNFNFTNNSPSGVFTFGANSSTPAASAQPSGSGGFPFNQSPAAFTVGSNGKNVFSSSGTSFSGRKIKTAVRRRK
# UniProt Q14974: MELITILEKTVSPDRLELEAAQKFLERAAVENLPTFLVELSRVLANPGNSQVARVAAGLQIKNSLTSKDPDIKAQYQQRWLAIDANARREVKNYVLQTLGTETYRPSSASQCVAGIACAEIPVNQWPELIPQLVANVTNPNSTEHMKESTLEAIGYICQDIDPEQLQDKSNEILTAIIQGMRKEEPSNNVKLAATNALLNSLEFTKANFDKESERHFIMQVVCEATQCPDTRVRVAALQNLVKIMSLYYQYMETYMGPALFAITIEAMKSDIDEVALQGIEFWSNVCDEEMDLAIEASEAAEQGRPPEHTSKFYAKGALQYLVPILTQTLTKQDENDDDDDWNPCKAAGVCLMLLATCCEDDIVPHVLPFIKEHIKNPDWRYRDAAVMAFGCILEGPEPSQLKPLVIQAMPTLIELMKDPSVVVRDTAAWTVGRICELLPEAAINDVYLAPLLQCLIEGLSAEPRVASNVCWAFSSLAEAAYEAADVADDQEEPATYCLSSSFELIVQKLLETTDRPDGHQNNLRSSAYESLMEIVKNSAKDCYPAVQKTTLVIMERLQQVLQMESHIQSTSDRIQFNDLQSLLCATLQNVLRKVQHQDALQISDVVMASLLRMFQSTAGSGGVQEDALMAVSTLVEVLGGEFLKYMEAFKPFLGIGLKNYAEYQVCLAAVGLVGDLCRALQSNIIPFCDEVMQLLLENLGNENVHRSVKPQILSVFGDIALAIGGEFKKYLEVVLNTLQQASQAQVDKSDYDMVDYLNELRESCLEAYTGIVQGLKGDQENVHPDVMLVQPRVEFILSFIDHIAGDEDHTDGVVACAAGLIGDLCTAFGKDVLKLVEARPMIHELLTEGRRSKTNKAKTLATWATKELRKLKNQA
# Target: BioID2-DNAJB6b (UniProt O75190)
# Assay: proximity labelling
row,binding,Molecule
1,binds,Nup153 (from UniProt P49790 1-1475)
2,binds,GFP-Nup153FG (aa 875-1475) (from UniProt P49790 875-1475) (domain or fragment)
3,binds,importin β (from UniProt Q14974 1-876)
4,no binding,"Nup133 (protein, UniProt Q8WUM0 1-1156) MFPAAPSPRTPGTGSRRGPLAGLGPGSTPRTASRKGLPLGSAVSSPVLFSPVGRRSSLSSRGTPTRMFPHHSITESVNYDVKTFGSSLPVKVMEALTLAEVDDQLTINIDEGGWACLVCKEKLIIWKIALSPITKLSVCKELQLPPSDFHWSADLVALSYSSPSGEAHSTQAVAVMVATREGSIRYWPSLAGEDTYTEAFVDSGGDKTYSFLTAVQGGSFILSSSGSQLIRLIPESSGKIHQHILPQGQGMLSGIGRKVSSLFGILSPSSDLTLSSVLWDRERSSFYSLTSSNISKWELDDSSEKHAYSWDINRALKENITDAIWGSESNYEAIKEGVNIRYLDLKQNCDGLVILAAAWHSADNPCLIYYSLITIEDNGCQMSDAVTVEVTQYNPPFQSEDLILCQLTVPNFSNQTAYLYNESAVYVCSTGTGKFSLPQEKIVFNAQGDSVLGAGACGGVPIIFSRNSGLVSITSRENVSILAEDLEGSLASSVAGPNSESMIFETTTKNETIAQEDKIKLLKAAFLQYCRKDLGHAQMVVDELFSSHSDLDSDSELDRAVTQISVDLMDDYPASDPRWAESVPEEAPGFSNTSLIILHQLEDKMKAHSFLMDFIHQVGLFGRLGSFPVRGTPMATRLLLCEHAEKLSAAIVLKNHHSRLSDLVNTAILIALNKREYEIPSNLTPADVFFREVSQVDTICECLLEHEEQVLRDAPMDSIEWAEVVINVNNILKDMLQAASHYRQNRNSLYRREESLEKEPEYVPWTATSGPGGIRTVIIRQHEIVLKVAYPQADSNLRNIVTEQLVALIDCFLDGYVSQLKSVDKSSNRERYDNLEMEYLQKRSDLLSPLLSLGQYLWAASLAEKYCDFDILVQMCEQTDNQSRLQRYMTQFADQNFSDFLFRWYLEKGKRGKLLSQPISQHGQLANFLQAHEHLSWLHEINSQELEKAHATLLGLANMETRYFAKKKTLLGLSKLAALASDFSEDMLQEKIEEMAEQERFLLHQETLPEQLLAEKQLNLSAMPVLTAPQLIGLYICEENRRANEYDFKKALDLLEYIDEEEDININDLKLEILCKALQRDNWSSSDGKDDPIEVSKDSIFVKILQKLLKDGIQLSEYLPEVKDLLQADQLGSLKSNPYFEFVLKANYEYYVQGQI"

# These are yes or no findings as the source states them, for the method shown. Binding seen in cells or lysates may run through a third protein. A yes stands for co-enrichment or nearness to the bait. Other partners may have been found. No binding means not detected with the bait.
